Data published in the supplement of paper PMC12823440, “Inhibitors supercharge kinase turnover through native proteolytic circuits” (Nature, 2025).
The list shows a part of the results. Hit calls seldom repeat between salt and free forms of one compound.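 Kinases, fused to nanoluciferase, were expressed in K562 cells; luminescence was measured every 4 h from 2 to 18 h as percent of control (DMSO = 100%, positive control = 0%). A time point is decreased if signal falls significantly (2 sigma). Hits were called by the authors by a rule that is not shown; the count of time points alone does not decide it.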

Amino acid sequences for entries named in this document (tags omitted). A change or cut given only in a name is not applied to a line headed by its entry.
UniProt P31749: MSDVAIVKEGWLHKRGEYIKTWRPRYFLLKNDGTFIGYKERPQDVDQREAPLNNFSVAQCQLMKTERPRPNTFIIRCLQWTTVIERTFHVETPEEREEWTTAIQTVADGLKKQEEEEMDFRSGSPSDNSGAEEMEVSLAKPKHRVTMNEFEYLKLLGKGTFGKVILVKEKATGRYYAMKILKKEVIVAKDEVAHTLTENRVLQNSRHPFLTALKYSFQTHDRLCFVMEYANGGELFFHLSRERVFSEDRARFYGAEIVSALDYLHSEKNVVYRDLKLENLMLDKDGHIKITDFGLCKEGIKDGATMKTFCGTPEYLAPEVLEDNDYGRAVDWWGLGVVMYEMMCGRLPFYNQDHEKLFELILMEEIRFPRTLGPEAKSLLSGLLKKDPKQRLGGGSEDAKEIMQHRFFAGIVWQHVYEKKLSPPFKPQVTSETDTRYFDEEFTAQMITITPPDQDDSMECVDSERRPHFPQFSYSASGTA
UniProt Q9UM73: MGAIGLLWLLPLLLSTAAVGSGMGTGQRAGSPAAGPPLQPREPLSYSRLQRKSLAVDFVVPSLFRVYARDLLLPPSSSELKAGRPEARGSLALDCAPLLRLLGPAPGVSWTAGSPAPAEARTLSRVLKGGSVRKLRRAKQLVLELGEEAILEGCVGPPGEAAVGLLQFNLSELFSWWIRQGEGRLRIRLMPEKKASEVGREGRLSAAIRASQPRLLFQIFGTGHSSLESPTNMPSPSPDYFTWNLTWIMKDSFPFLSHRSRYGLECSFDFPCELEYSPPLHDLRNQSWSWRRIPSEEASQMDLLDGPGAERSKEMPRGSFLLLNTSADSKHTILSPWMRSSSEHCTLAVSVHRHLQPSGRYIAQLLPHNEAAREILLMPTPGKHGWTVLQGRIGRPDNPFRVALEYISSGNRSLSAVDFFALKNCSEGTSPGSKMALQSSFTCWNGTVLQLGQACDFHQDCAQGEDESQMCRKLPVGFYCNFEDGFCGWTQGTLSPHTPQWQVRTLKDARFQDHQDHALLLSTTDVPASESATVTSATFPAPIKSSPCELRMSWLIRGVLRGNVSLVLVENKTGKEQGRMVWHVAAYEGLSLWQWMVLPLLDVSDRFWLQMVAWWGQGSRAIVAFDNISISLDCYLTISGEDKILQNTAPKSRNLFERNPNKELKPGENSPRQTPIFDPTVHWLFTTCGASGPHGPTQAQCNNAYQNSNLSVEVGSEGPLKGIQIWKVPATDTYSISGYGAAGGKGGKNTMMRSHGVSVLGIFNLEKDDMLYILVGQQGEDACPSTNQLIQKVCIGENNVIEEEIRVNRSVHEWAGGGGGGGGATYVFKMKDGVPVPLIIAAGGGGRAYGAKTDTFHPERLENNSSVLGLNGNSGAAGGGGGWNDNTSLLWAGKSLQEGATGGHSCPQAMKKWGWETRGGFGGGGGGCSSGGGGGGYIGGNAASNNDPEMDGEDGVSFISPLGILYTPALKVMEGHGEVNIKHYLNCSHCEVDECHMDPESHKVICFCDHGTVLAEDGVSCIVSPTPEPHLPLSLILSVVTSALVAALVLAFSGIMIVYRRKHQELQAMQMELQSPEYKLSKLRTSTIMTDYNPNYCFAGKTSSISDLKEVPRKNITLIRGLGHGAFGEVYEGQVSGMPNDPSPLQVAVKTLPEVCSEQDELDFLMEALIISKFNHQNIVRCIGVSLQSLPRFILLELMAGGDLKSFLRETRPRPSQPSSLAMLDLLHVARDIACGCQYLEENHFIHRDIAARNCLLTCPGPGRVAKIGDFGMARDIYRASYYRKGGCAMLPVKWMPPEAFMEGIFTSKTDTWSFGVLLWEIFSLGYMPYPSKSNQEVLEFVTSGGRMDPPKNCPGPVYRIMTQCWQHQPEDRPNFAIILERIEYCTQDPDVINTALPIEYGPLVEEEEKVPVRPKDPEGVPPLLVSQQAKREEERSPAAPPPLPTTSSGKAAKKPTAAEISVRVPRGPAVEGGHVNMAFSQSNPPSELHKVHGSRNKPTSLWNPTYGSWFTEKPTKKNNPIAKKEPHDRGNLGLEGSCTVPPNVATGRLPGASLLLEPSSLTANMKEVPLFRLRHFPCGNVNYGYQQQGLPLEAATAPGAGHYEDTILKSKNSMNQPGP
UniProt P10398: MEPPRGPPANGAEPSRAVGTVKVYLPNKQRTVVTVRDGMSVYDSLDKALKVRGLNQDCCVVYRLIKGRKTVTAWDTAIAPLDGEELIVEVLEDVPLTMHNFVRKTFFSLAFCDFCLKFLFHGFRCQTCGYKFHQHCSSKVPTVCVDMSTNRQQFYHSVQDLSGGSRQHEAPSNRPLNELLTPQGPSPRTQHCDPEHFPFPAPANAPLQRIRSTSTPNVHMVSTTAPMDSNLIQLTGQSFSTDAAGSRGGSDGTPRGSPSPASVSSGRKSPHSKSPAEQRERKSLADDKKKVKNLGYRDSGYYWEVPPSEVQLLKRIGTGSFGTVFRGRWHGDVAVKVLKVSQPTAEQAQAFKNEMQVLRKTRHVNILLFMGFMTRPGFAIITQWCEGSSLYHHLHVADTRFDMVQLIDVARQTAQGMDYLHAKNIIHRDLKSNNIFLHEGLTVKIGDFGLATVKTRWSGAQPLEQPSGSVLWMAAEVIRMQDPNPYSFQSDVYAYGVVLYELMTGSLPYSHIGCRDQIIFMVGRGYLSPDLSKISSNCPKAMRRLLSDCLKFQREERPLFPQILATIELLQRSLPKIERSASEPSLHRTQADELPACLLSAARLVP
UniProt Q9UQB9: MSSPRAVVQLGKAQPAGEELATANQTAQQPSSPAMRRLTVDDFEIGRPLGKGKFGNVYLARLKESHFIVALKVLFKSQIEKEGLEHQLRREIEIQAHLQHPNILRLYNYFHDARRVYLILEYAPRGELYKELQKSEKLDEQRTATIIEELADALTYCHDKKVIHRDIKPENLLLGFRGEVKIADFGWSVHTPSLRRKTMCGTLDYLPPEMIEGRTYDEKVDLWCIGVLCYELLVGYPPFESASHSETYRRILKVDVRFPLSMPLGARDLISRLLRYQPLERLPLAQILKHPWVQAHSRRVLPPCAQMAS
UniProt P51813: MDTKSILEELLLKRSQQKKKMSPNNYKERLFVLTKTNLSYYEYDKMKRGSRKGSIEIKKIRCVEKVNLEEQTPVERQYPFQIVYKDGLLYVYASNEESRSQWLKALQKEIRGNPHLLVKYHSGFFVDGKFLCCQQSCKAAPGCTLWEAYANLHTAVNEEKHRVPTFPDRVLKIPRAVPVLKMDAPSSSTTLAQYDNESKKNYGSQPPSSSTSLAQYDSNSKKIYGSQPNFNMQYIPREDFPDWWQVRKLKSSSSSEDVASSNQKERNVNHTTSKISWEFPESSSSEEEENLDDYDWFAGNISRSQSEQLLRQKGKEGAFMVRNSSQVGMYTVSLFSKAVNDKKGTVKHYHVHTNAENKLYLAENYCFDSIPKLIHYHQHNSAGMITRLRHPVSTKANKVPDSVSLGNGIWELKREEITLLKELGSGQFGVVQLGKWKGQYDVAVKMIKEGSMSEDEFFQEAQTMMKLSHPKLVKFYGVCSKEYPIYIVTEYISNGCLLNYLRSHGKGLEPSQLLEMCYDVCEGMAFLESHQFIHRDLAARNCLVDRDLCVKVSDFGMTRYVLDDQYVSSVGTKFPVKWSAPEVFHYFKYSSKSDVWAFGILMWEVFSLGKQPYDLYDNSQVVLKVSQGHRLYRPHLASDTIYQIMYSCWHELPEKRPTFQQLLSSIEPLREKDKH
UniProt P15056, whole entry, looked up: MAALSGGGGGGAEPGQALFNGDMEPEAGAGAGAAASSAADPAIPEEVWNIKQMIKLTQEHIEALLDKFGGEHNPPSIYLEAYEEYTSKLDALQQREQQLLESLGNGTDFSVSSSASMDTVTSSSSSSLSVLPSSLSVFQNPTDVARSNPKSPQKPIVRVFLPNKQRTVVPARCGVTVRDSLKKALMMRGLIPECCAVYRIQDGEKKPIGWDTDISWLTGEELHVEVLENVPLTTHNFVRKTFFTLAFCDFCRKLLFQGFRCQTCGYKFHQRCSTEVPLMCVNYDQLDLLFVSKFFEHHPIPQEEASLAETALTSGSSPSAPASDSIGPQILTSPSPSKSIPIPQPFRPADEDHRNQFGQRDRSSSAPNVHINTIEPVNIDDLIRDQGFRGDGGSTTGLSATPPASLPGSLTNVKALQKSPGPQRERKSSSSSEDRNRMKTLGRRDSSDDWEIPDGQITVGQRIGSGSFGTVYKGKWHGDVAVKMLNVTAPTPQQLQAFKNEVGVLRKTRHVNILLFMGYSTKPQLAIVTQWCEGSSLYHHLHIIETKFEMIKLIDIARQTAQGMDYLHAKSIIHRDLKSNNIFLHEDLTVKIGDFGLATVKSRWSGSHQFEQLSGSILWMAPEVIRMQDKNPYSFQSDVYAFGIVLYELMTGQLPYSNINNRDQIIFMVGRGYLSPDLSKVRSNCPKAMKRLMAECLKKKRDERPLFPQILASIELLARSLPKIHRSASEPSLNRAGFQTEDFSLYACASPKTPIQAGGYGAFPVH
UniProt Q06187: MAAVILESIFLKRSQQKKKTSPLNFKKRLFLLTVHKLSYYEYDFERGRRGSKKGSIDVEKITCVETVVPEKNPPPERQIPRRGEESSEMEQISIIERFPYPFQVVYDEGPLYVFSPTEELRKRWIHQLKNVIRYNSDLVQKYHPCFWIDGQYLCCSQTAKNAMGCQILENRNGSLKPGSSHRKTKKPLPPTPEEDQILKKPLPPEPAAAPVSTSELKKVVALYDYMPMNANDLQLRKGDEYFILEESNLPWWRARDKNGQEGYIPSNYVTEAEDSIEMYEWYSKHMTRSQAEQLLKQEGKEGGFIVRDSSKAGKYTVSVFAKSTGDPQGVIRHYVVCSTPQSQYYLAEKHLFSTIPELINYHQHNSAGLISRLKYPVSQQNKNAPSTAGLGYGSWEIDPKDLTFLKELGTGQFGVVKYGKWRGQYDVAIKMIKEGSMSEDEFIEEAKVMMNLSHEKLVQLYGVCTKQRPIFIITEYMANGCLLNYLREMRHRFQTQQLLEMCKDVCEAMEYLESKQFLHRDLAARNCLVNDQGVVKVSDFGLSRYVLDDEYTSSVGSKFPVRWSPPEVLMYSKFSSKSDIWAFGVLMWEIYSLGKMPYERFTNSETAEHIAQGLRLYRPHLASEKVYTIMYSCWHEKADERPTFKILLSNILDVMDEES
UniProt Q9UQM7, whole entry: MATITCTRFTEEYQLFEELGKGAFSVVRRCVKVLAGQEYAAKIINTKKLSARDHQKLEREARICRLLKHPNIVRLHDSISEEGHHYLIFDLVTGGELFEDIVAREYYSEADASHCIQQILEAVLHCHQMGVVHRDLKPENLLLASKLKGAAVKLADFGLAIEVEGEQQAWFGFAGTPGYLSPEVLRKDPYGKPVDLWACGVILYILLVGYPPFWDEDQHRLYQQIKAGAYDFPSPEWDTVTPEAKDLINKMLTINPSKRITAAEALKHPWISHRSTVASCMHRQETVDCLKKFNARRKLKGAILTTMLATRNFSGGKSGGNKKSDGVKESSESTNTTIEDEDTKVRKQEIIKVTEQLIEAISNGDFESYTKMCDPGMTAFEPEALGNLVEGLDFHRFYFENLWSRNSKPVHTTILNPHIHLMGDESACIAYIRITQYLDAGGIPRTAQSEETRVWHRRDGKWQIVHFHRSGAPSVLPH
UniProt Q00526: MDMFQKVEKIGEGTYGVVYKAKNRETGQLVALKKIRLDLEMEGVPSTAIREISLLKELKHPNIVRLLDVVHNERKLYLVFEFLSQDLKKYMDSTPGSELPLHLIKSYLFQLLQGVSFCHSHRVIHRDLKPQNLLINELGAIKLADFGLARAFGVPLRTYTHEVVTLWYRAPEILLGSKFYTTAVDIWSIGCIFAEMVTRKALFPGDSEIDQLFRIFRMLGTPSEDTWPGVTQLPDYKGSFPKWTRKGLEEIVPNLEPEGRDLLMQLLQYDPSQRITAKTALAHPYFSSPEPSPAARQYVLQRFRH
UniProt P11802: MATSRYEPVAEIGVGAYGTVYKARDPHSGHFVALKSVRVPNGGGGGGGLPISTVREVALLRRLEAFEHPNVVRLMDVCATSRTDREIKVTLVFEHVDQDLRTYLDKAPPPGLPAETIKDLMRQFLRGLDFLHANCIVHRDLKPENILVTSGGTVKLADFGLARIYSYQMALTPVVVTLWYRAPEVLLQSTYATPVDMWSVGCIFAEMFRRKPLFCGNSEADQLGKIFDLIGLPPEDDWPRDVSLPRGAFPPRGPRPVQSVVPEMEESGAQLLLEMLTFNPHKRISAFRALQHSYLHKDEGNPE
UniProt Q00535, whole entry, looked up: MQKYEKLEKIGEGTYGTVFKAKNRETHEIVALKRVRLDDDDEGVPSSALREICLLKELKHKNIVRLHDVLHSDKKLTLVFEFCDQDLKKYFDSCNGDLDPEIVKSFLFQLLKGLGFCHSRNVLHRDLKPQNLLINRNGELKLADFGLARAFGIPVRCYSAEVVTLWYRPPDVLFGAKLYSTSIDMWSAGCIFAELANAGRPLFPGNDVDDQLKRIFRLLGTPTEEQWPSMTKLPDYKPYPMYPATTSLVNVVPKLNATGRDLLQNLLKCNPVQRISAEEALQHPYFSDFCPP

Key:
Experiment in all cases: kinase-Nluc reporter destabilization hit call (1 = scored as downregulated) (binary); higher = compound decreases kinase abundance
Conditions in all cases: K562; 2-18 h
ABL1 = ABL1 (UniProt P00519)
AKT1 = AKT1 (UniProt P31749)
ALK = ALK (UniProt Q9UM73)
ARAF = ARAF (UniProt P10398)
AURKA = AURKA (UniProt O14965)
AURKB = AURKB (UniProt Q96GD4)
AURKC = AURKC (UniProt Q9UQB9)
BLK = BLK (UniProt P51451)
BMX = BMX (UniProt P51813)
BRAF = BRAF (UniProt P15056)
BRAF_V600E = system: BRAF_V600E
BTK = BTK (UniProt Q06187)
CAMK2A = CAMK2A (UniProt Q9UQM7)
CAMK2G = CAMK2G (UniProt Q13555)
CDK10 = CDK10 (UniProt Q15131)
CDK2 = CDK2 (UniProt P24941)
CDK3 = CDK3 (UniProt Q00526)
CDK4 = CDK4 (UniProt P11802)
CDK5 = CDK5 (UniProt Q00535)
CDK6 = CDK6 (UniProt Q00534)

Measured: kinase-Nluc reporter destabilization hit call

O=C(Nc1ccnc(NC(=O)C2CC2)c1)c1c(Cl)cccc1Cl (10 µM)
inactive: ABL1 = 0 | AKT1 = 0 | ALK 0 | ARAF 0 | AURKA 0 | AURKB 0 | AURKC 0 | BLK 0 | BMX 0 | BRAF 0 | BRAF_V600E 0 | BTK 0 | CAMK2A 0 | CAMK2G 0 | CDK10 = 0 | CDK2 = 0 | CDK3 = 0 | CDK4 = 0 | CDK5 = 0 | CDK6 = 0

C[C@H](Nc1cc2c(-c3ccc4c(c3)OCO4)noc2cn1)c1ccccc1 (10 µM)
inactive: ABL1 = 0 | AKT1 = 0 | ALK 0 | ARAF 0 | AURKA 0 | AURKB 0 | AURKC 0 | BLK 0 | BMX 0 | BRAF 0 | BRAF_V600E 0 | BTK 0 | CAMK2A 0 | CAMK2G 0 | CDK10 = 0 | CDK2 = 0 | CDK3 = 0 | CDK4 = 0 | CDK5 = 0 | CDK6 = 0

COc1c(Nc2ncc(Cl)c(N[C@H]3[C@@H](C(N)=O)[C@@H]4C=C[C@H]3C4)n2)ccc2c1CC[C@@H](N1CCOCC1)CC2 (10 µM)
inactive: ABL1 = 0 | AKT1 = 0 | ALK 0 | ARAF 0 | AURKA 0 | AURKB 0 | AURKC 0 | BLK 0 | BMX 0 | BRAF 0 | BRAF_V600E 0 | BTK 0 | CAMK2A 0 | CAMK2G 0 | CDK10 = 0 | CDK2 = 0 | CDK3 = 0 | CDK4 = 0 | CDK5 = 0 | CDK6 = 0

N#Cc1cc(N2CCC(C(=O)N3N=CC[C@H]3c3cc(F)cc(F)c3)CC2)ncn1 (10 µM)
inactive: ABL1 = 0 | AKT1 = 0 | ALK 0 | ARAF 0 | AURKA 0 | AURKB 0 | AURKC 0 | BLK 0 | BMX 0 | BRAF 0 | BRAF_V600E 0 | BTK 0 | CAMK2A 0 | CAMK2G 0 | CDK10 = 0 | CDK2 = 0 | CDK3 = 0 | CDK4 = 0 | CDK5 = 0 | CDK6 = 0

CN(C)CCOc1cc(-c2cn[nH]c2)ccc1NC(=O)C1COc2ccccc2O1 (stereo not given) (10 µM)
inactive: ABL1 = 0 | AKT1 = 0 | ALK 0 | ARAF 0 | AURKA 0 | AURKB 0 | AURKC 0 | BLK 0 | BMX 0 | BRAF 0 | BRAF_V600E 0 | BTK 0 | CAMK2A 0 | CAMK2G 0 | CDK10 = 0 | CDK2 = 0 | CDK3 = 0 | CDK4 = 0 | CDK5 = 0 | CDK6 = 0

Nc1ccc(C(=O)Nc2cccc(-c3nc(N4CCOCC4)c4oc5ncccc5c4n3)c2)cn1 (10 µM)
inactive: ABL1 = 0 | AKT1 = 0 | ALK 0 | ARAF 0 | AURKA 0 | AURKB 0 | AURKC 0 | BLK 0 | BMX 0 | BRAF 0 | BRAF_V600E 0 | BTK 0 | CAMK2A 0 | CAMK2G 0 | CDK10 = 0 | CDK2 = 0 | CDK3 = 0 | CDK4 = 0 | CDK5 = 0 | CDK6 = 0

O=C1NC(=O)C(Cc2c[nH]c3c(Cl)cccc23)N1 (stereo not given) [Necroptosis-IN-1] (10 µM)
inactive: ABL1 = 0 | AKT1 = 0 | ALK 0 | ARAF 0 | AURKA 0 | AURKB 0 | AURKC 0 | BLK 0 | BMX 0 | BRAF 0 | BRAF_V600E 0 | BTK 0 | CAMK2A 0 | CAMK2G 0 | CDK10 = 0 | CDK2 = 0 | CDK3 = 0 | CDK4 = 0 | CDK5 = 0 | CDK6 = 0

O=C1C=CC2=C3c4cc(O)c(O)cc4CC3(O)COC2=C1O (stereo not given) [Hematein] (10 µM)
inactive: ABL1 = 0 | AKT1 = 0 | ALK 0 | ARAF 0 | AURKA 0 | AURKB 0 | AURKC 0 | BLK 0 | BMX 0 | BRAF 0 | BRAF_V600E 0 | BTK 0 | CAMK2A 0 | CAMK2G 0 | CDK10 = 0 | CDK2 = 0 | CDK3 = 0 | CDK4 = 0 | CDK5 = 0 | CDK6 = 0

CCC[C@H](C)Oc1nc(N)c2[nH]c(=O)n(CCCCCN3CCCCC3)c2n1 (10 µM)
inactive: ABL1 = 0 | AKT1 = 0 | ALK 0 | ARAF 0 | AURKA 0 | AURKB 0 | AURKC 0 | BLK 0 | BMX 0 | BRAF 0 | BRAF_V600E 0 | BTK 0 | CAMK2A 0 | CAMK2G 0 | CDK10 = 0 | CDK2 = 0 | CDK3 = 0 | CDK4 = 0 | CDK5 = 0 | CDK6 = 0
